The other results are listed elsewhere or left out. The exact form of the protein is not confirmed.

In this assay the target is T1, ELF2 (UniProt Q15723).
T1 sequence: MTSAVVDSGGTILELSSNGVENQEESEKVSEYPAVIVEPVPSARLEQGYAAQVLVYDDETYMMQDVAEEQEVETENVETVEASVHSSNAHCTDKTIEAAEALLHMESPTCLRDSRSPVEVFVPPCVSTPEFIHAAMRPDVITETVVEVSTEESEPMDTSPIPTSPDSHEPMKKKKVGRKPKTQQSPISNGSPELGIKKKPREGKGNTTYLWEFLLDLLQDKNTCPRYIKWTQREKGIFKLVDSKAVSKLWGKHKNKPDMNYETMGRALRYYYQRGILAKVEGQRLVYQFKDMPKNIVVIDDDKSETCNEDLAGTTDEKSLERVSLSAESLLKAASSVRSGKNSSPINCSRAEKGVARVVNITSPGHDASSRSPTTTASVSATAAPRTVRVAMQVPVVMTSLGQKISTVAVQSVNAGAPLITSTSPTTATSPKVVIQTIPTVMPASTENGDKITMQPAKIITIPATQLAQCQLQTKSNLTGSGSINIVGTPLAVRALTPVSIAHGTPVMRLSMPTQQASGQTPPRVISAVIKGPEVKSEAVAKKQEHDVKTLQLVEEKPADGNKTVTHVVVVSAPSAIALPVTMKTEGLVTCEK
The assay can be described thus: DAPPL (digital affinity profiling via proximity ligation, sequencing). To be noted: 10 mM Tris-HCl pH 7.5, 50 mM NaCl, 1 mM DTT, 4% glycerol, room temperature, 30 min; GST-TFs on glutathione beads, 16-mer random dsDNA library, 0.1% …; high values mean tight binding; double strand, one strand shown; scale: fold enrichment (6-mer frequency, TF over GST control).
For ACATCC, the binding signal worked out at 3.06.
On to CGGCTT, for which the binding signal came to 1.19.
TACTTT: the binding signal turned out to be 1.34.
AAGAAT gave a binding signal of 1.2.
Sequence TCTTGT came in with a binding signal of 1.45.
For ATACTA, the binding signal was 1.11.
Sequence CGAAAC showed a binding signal of 1.2.
On to GCGTTC, for which the binding signal came to 1.17.
The sequence TTATGT showed a binding signal of 1.24.
Then TACCCT, with 1.27.
In turn, ACATTC came in with a binding signal of 1.27.
In turn, TAAACG returned a binding signal of 1.12.
Regarding ATGCAC, the binding signal was 1.29.
ACTTAA had a binding signal of 1.14.
Regarding TCGATT, the binding signal was determined as 1.06.
Then ATTACG, with 1.21; and CTGGCC, with 1.08.
Turning to TACACC, the binding signal stood at 1.16.
AGTATC: the binding signal came to 1.22.
ATTTCT: the binding signal stood at 1.46.
AAATGT displayed a binding signal of 1.33.
As to TGTGGA, the binding signal was 0.995.
AGATTC registered a binding signal of 1.17.
ACTCCT displayed a binding signal of 1.48.
Then CCGCTA, with 1.46.
In turn, GAATTT had a binding signal of 1.27.
As to TTTTCA, the binding signal was 1.16.
Regarding GATCTC, the binding signal was 1.16.
Regarding ATGGAA, the binding signal came out at 1.12.
Then AGAAAT, with 1.16; and CCCCAT, with 1.25.
CTCGAT came in with a binding signal of 1.27.
For the sequence AGCCTC, the binding signal is 1.2.
Then CTCTCA, with 1.27; and AGGAAA, with 1.84; and TATCTA, with 1.18.
GAACAT displayed a binding signal of 1.04.
Then TGGTTT, with 1.61; and TGCAAA, with 1.03.
Then CGATAC, with 1.14.

Values taken from PMC7862700.
